In paper PMC6007958, “Identification, characterization and application of a new peptide against anterior gradient homolog 2 (AGR2)” (Oncotarget, 2018):
No constants are given. Whether binding was seen depends on the method and setting. A result given as binding can be weak or reduced; the word gives no strength.

By UniProt entry, the sequences of proteins in these tests, tags left out. Where a name states a change or a piece, a line headed by the entry shows the natural chain unless it says otherwise.
UniProt O95994: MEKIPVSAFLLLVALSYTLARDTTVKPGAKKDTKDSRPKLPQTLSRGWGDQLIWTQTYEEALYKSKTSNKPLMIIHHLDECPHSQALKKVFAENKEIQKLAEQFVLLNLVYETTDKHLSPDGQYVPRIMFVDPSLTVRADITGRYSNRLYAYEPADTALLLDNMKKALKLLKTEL

What was measured:
H10 peptide (biotin-…) [1] = molecular target: T1, H10 peptide (biotin-…); assay: SPR; competition: AGR2 (500 nM) pre-incubated with free H10 or control peptide (500 nM), injected over immobilised H10; both purified
T1 sequence (peptide, biotin (N-Terminal)): GGGSGMKMQVRIYLV

H10 peptide (biotin-…) [2] = molecular target: T1, H10 peptide (biotin-…); assay: pull-down; H10-biotin or scrambled-biotin peptide on streptavidin magnetic beads; recombinant proteins (1-3 mg/mL) overnight at 4°C; TBS 0.1% Tween washes; SDS-PAGE/Western blot; both purified
H10 peptide (biotin-…) [3] = molecular target: T1, H10 peptide (biotin-…); assay: ELISA; biotinylated H10 (1 μg) on streptavidin coated plates; recombinant AGR2 4-3,000 ng/mL (wash buffer, PBS or DMEM with 10% FBS), 37°C 2 h; detected with anti-AGR2 antibody (Epitomics) and HRP secondary; both purified
H10 peptide (biotin-…) [4] = molecular target: T1, H10 peptide (biotin-…); assay: cross-linking; AGR2 pre-incubated with H10 in 20 mM HEPES pH 7.5 at 25°C, DSSO cross-linking, trypsin digest, LC-MS; loss of peptide spectrum matches; both purified

Row | Substance | binding (H10 peptide (biotin-…) [3]) | further results
1 | Δ27 AGR2 (recombinant anterior gradient protein 2 without the ER leader sequence) (from UniProt O95994) | binds | binding (H10 peptide (biotin-…) [1]): binds; binding (H10 peptide (biotin-…) [2]): binds; binding (H10 peptide (biotin-…) [4]): binds
2 | Δ27 AGR2 E96K (from UniProt O95994) | binds | –
3 | Δ27 AGR2 T140A (from UniProt O95994) | binds | –
4 | Δ27 AGR2 R148H (from UniProt O95994) | binds | –
5 | Δ27 AGR2 A155T (from UniProt O95994) | binds | –
6 | Δ41-AGR2 (human) (domain or fragment) | binds | –
7 | Δ27 AGR2 Q103R (from UniProt O95994) | binds | –
8 | Δ27 AGR2 E60Q (from UniProt O95994) | binds | –
9 | Δ27 AGR2 S134A (from UniProt O95994) | binds | –
